Publication PMC2909763 (Chemistry & biology, 2009)

Test system: acetylated histone H3 in FRDA lymphoblast cell line
Assay: Histone H3 acetylation by western blot in FRDA lymphoblasts
Type: cell-based, human
Details: then washed

## O=C(CCCCCCC(=O)Nc1ccccc1)NO [SAHA, suberoylanilide hydroxamic acid, reference compound]
3 or 106 at 10 μM, SAHA at 2 μM, 24 h, 0 to 7 h
  hyperacetylation of histone H3 after inhibitor removal: disappeared rapidly
SAHA 2 μM for 24 h
  time for acetylation to return to no-inhibitor levels after removing inhibitor: ≤ 2 h
